Hit rate of the full screen: of about 52,000 sequences, about 210 (0.4%) were called active.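 How the source made its calls: active means gene whose silencing raises cell survival under the drug, median off-target-corrected z-score across its silencing RNAs 2 or more; inactive means the rest.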 Some of the results follow.
Test: Resistance to Poly (ADP-Ribose) Polymerase inhibitor: Gene Identification via Genome-wide siRNA Screen
Settings: mouse BRCA2 R2336H ES cells, olaparib, CellTiter-Glo viability; hits give high values
Procedure, shortened: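 Mouse BRCA2 R2336H ES cells were reverse-transfected with siRNA (20 nM final), treated at 48 h with 500 nM olaparib, and read by CellTiter-Glo after 72 h. Scores: MAD-based z per siRNA, median per gene, seed off-target correction.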

Sequence | z-score
GGAGUACGUGAUUGCUCUGTT against Rcvrn | inactive: -0.388
GCACUCUCAGCAUUGGAUUTT against Sec22l1 | inactive: -1.44
GCUCCAGGCAUUGAGAAUGTT against Hcfc1r1 | inactive: 0.185
GGCAUAGGAAAAACAUGAATT against C1qtnf1 | inactive: 0.846
GGAAAAAUUUGAAGCAGGATT against 1810063B05Rik | inactive: -0.374
GCUGCAUAGAUUCCAUAAUTT against Lxn | inactive: -1.11
GCAGGGUGUCUACUUGUUGTT against Gata4 | inactive: -0.384
GUCUUUAACUCUCCUAUGUTT against 2310034C09Rik | inactive: -0.0533
GCAAGUGAGACCUACUGUATT against 6820443O06Rik | inactive: -2.01
CCACCAUCGGUUGUUAGUUTT against Actg | inactive: 0.898
GGUUUCCAGUAAGAUCUUATT against A130070M06 | inactive: -0.825
GGAGCACUUGAUUAAACAUTT against Syt10 | inactive: 0.37
GGUUUCUAUUGUGUUCAUUTT against Birc2 | inactive: -0.135
GGAAGUUUAGUCUCAAAACTT against Csnk1d | inactive: -0.0755
GGCUCAAGAAACUGGAGCUTT against Usp21 | inactive: -0.189
CGCCAUGCUUAGAUUUAAATT against 1600013P15Rik | inactive: -0.161
GGGCUCAACAGUUUCAACCTT against Mrpl4 | inactive: 0.983
GGGCAUGGCCUUUACACUUTT against 1700020C08Rik | inactive: 1.55
GGGCUGACUGUGAAGUAUGTT against 9330140G23 | inactive: -0.26
GGUGACCGUUGUAACUGUGTT against 0610008A10Rik | inactive: 0.16
CCUCUGAACUCCAACCGAATT against 1700023E05Rik | inactive: 3.66
GGCAGAAGAGCAGUCUGAATT against D17Ertd488e | inactive: -2.24

Part of the list above, tab-delimited:
Sequence	z-score
GGAAAAAUUUGAAGCAGGATT against 1810063B05Rik	inactive: -0.374
GGUUUCUAUUGUGUUCAUUTT against Birc2	inactive: -0.135

Next part.

Sequence | z-score
CCAGACUACGGUGCUAAGATT against 4930525K10Rik | inactive: -0.597
GGCAACUCUUAAAAAACCATT against Igfbpl1 | inactive: 2.28
GGUUUACUGUGAAAAAAGATT against 4932411A10Rik | inactive: -0.598
GGUGCUCUUUUCAGAAAAATT against Ptpla | inactive: 3.65
GCUAACAUGUUGUCUUAAATT against Tm4sf12 | inactive: -0.254
GGUACAGUAUGAUACUCACTT against Olfr678 | inactive: -0.458
GGACAAAGUACAUUUAUGGTT against Il7r | inactive: 0.756
GGAAAUGUGGAGAGAAAAUTT against P2ry4 | inactive: -0.358
CCAUUGCAGCAUACUGUCCTT against Serpina1b | inactive: -1.23
CGUGGCUCAAAUUUUCAACTT against Cab39 | inactive: -0.381
GGAAAAGAAAGCAAAGAGATT against Dach1 | inactive: -0.059
GGAAAAACAAGAAAGGGAATT against Cdyl | inactive: -0.297
GCUGGAAGAUCUGCUCAACTT against 6430537H07Rik | inactive: 0.724
GGAAGGUAGUGCUAAUCAGTT against Neil2 | inactive: 0.0179
GGAGUCAGUGCACAUAAUGTT against Usp52 | inactive: -2.21
GGUACUAAAUCAAACAUCCTT against Angpt1 | inactive: 1.73
GGUUCAGACACCACUUCAGTT against Bgn | inactive: -0.627
GGACAUCCCAGACAAUUUUTT against Lxn | inactive: -2.05
GCCCAGCAUGGAUAGAUUATT against C79407 | inactive: 0.0059
GGCUUUGCUAUCAACUCGCTT against 4732472I07Rik | inactive: 0.344
GCCUUUACUGGAUUCAUUGTT against Acadm | inactive: -1.37
GGAAUGCAAAAAACUCUGGTT against Gzmg | inactive: -0.54

Sequence | z-score
CGUUCUCUUGAAAUAAGCCTT against Pogk | inactive: 0.191
CCGAGAUGAUUAUUCAUAATT against Slc17a6 | inactive: -0.358
GCUUCCUCGUAUCUACACCTT against Phb | inactive: -2.61
GGUGAACACAACCAAACCATT against D15Ertd366e | inactive: -0.06
GGAACUGACUGCCUAUUCCTT against Gnb3 | inactive: -0.645
CCAGCAAUAGUUCAGCAGATT against 2310043N13Rik | inactive: -0.766
GGUGAUUUUAAUAUGCCUGTT against Cox15 | inactive: 0.119
AAUAAAAGUGUCCUCUGUGTT against Olfr242 | inactive: -1.61
GGAUCAAUGCUAAGCUCCATT against Olfr1176 | inactive: -2.35
GGAUAUGCUCUCUUGGCUCTT against Ctsk | inactive: -0.645
GGGCCAGGUAUUCAUGGAATT against Ciapin1 | inactive: 1.97
GCUCAGAAAUUAAUCAUCATT against C330011M18Rik | inactive: 0.807
GGUCGGUUGCUUUAGUGAATT against Magee2 | inactive: 0.303
AUGACUAGAUACUCAGAUGTT against 4930451E10Rik | inactive: 1.77
GGAGGAUGCAGCUAACAAUTT against Tuba8 | inactive: -1.76
GCCGGAUACUCAAAUAACGTT against Svs5 | inactive: -0.771
GGAAGGAAACAGAAAAGUATT against 5830483C08Rik | inactive: 0.149
GGCAAAGUACUACGUGCAGTT against Sh3bp5 | inactive: 0.298
GGCUAAAGCGCAAAAGGGCTT against Nav1 | inactive: -0.179
GCUCUUUCUUCAUUCCACATT against Krtap5-5 | inactive: -0.209
GCAAAUCAAACGAUCAGCUTT against Cxxc1 | inactive: -2.18
GGAUUUUCACAUUGCAUCUTT against 4921520P21Rik | inactive: 0.236

Laid out differently: entries from further up.

| Sequence | z-score |
| --- | --- |
| AAUAAAAGUGUCCUCUGUGTT against Olfr242 | inactive: -1.61 |
| GGUCGGUUGCUUUAGUGAATT against Magee2 | inactive: 0.303 |

Reference: PubChem BioAssay AID1347423 (Functional Genomics Laboratory (NCATS/FGL), 2020)
